{"source": "PubChem BioAssay AID192", "about": "(DTP/NCI, 2004)", "tested_on": "BDF1 mice, B16 melanoma ip, median survival T/C", "assay": "NCI In Vivo Anticancer Drug Screen. Data for tumor model B16 Melanoma (intraperitoneal) in B6D2F1 (BDF1) mice", "conditions": "T/C endpoint: median survival time, higher T/C = longer survival", "procedure,_shortened": "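Mice with transplantable tumors; drug vs vehicle groups; endpoint survival or tumor size; value = T/C.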", "key": {"[1]": {"conditions": "dose: 2.0 mg/kg/injection, schedule: Q01DX009 (ip), vehicle: water"}, "[2]": {"conditions": "dose: 3.0 mg/kg/injection, schedule: Q01DX009 (ip), vehicle: saline"}, "[3]": {"conditions": "dose: 6.0 mg/kg/injection, schedule: Q01DX009 (ip), vehicle: saline"}, "[4]": {"conditions": "dose: 75.0 mg/kg/injection, schedule: Q01DX009 (ip), vehicle: saline with Tween-80"}}, "note": "The list shows only some results of the screen, not a fair sample: it gathers tests that were run many times, whatever their T/C, doses with no T/C, and many T/C values between a quarter and a half above the control. Other doses and runs of a compound stand elsewhere. T/C: endpoint of the treated group in % of that of the vehicle group. Some doses have a count of surviving animals in place of a T/C: the source holds a T/C of zero for them, seemingly a mark for toxic or unscored doses. Some survivor counts are full or nearly so, which does not show that the dose was tolerated: the source hardly ever lists a survival T/C far under the control, and the zero likely stands for such cases as well. Survivors were counted at the toxicity check, usually on the fifth day, unless a day is given; later deaths do not show. Schedule codes are those of the source, taken here to give the interval after Q, in days (D) or hours (H), and the number of doses after X. Some molecules as drawn cover several salts, stereoisomers or complexes of the source; a dose is that of the sample tested. Some entries were tested several times; their values stand side by side, smallest first. For survival time, the PubChem record calls one and a half times the control and up active, and a quarter to a half above the control has no call in these data; cut-offs in other NCI protocols can differ. Some T/C values are followed by the survivors on the day toxicity was checked, most often the fifth; where none is given, no animal had died by that day."}
{"smiles": "CC[C@@]1(O)C[C@H](OC2CC(N(C)C)C(OC3CC(O)C(OC4CCC(=O)C(C)O4)C(C)O3)C(C)O2)c2c(cc3c(c2O)C(=O)c2c(O)ccc(O)c2C3=O)[C@H]1C(=O)OC", "note": "(some centres undefined)", "values": [{"measurement": "T/C", "setting": "dose: 0.5 mg/kg/injection, schedule: Q01DX009 (ip), vehicle: saline", "value": "146 % of control"}, {"measurement": "T/C", "setting": "dose: 0.5 mg/kg/injection, schedule: Q01DX009 (ip), vehicle: water", "value": "129 % of control"}, {"measurement": "T/C", "setting": "dose: 0.75 mg/kg/injection, schedule: Q01DX009 (ip), vehicle: saline", "value": "138 % of control"}, {"measurement": "T/C", "setting": "dose: 1.0 mg/kg/injection, schedule: Q01DX009 (ip), vehicle: water, evaluated on day 35", "value": "130 % of control"}, {"measurement": "T/C", "setting": "dose: 1.0 mg/kg/injection, schedule: Q01DX009 (ip), vehicle: water, evaluated on day 60", "value": "129 % of control"}, {"measurement": "survivor count", "setting": "dose: 2.0 mg/kg/injection, schedule: Q01DX009 (ip), vehicle: saline", "value": "9 of 10"}, {"measurement": "T/C", "setting": "[1]", "value": "133 % of control"}, {"measurement": "survivor count", "setting": "[1]", "value": "10 of 10"}, {"measurement": "survivor count", "setting": "[2]", "value": "10 of 10"}, {"measurement": "survivor count", "setting": "dose: 4.0 mg/kg/injection, schedule: Q01DX009 (ip), vehicle: saline", "value": "8 of 10"}, {"measurement": "survivor count", "setting": "dose: 4.0 mg/kg/injection, schedule: Q01DX009 (ip), vehicle: water", "value": "7 of 10 and 10 of 10"}, {"measurement": "survivor count", "setting": "[3]", "value": "6 of 10 and 9 of 10"}, {"measurement": "survivor count", "setting": "dose: 8.0 mg/kg/injection, schedule: Q01DX009 (ip), vehicle: water", "value": "9 of 10"}, {"measurement": "survivor count", "setting": "dose: 12.0 mg/kg/injection, schedule: Q04DX003 (ip), vehicle: saline", "value": "10 of 10"}, {"measurement": "survivor count", "setting": "dose: 16.7 mg/kg/injection, schedule: Q01DX001 (ip), vehicle: water", "value": "5 of 8"}]}
{"smiles": "CC(CC=O)CCCC(C)(C)O", "note": "(centres undefined)", "values": [{"measurement": "survivor count", "setting": "dose: 400.0 mg/kg/injection, schedule: Q01DX009 (ip), vehicle: Klucel (hydroxypropylcellulose) (HPC)", "value": "10 of 10"}]}
{"smiles": "Cc1cc2oc(=O)c3c(c2c(O)c1CN1CCOCC1)CCCC3", "values": [{"measurement": "survivor count", "setting": "dose: 512.0 mg/kg/injection, schedule: Q01DX009 (ip), vehicle: Klucel (hydroxypropylcellulose) (HPC)", "value": "4 of 5"}]}
{"smiles": "CCCCCCCCCCCCCCCCCCCCCC(=O)Nc1ccn(C2OC(CO)C(O)C2O)c(=O)n1", "note": "(centres undefined)", "values": [{"measurement": "T/C", "setting": "dose: 6.25 mg/kg/injection, schedule: Q01DX009 (ip), vehicle: saline with Tween-80", "value": "127 % of control"}, {"measurement": "T/C", "setting": "dose: 12.5 mg/kg/injection, schedule: Q01DX009 (ip), vehicle: saline with Tween-80", "value": "143 % of control"}, {"measurement": "T/C", "setting": "dose: 25.0 mg/kg/injection, schedule: Q01DX009 (ip), vehicle: saline with Tween-80", "value": "141 % of control [9 of 10 alive]"}, {"measurement": "T/C", "setting": "dose: 200.0 mg/kg/injection, schedule: Q01DX009 (ip), vehicle: saline with Tween-80", "value": "143 % of control"}]}
{"smiles": "O=C1C(Br)=C(Br)C(=O)C1(Br)Br", "values": [{"measurement": "survivor count", "setting": "dose: 12.5 mg/kg/injection, schedule: Q04DX003 (ip), vehicle: saline with Tween-80", "value": "6 of 10"}]}
{"smiles": "CN(C)CCN1C(=O)CC(c2ccccc2)Sc2ccccc21", "note": "(centres undefined)", "values": [{"measurement": "survivor count", "setting": "dose: 50.0 mg/kg/injection, schedule: Q01DX009 (ip), vehicle: saline", "value": "10 of 10"}]}
{"smiles": "c1cc2cc3c(cc2cc1CC1=NCCc2cc4c(cc21)OCO4)OCO3", "values": [{"measurement": "survivor count", "setting": "dose: 75.0 mg/kg/injection, schedule: Q01DX009 (ip), vehicle: other", "value": "6 of 10"}, {"measurement": "survivor count", "setting": "dose: 300.0 mg/kg/injection, schedule: Q01DX009 (ip), vehicle: other", "value": "6 of 10"}]}
{"smiles": "CNC(C)Cc1ccccc1", "note": "(centres undefined)", "values": [{"measurement": "survivor count", "setting": "dose: 7.5 mg/kg/injection, schedule: Q01DX009 (ip), vehicle: saline", "value": "10 of 10"}, {"measurement": "survivor count", "setting": "dose: 60.0 mg/kg/injection, schedule: Q01DX009 (ip), vehicle: saline", "value": "6 of 10"}]}
{"smiles": "COc1ccc(NC(=O)Nc2cccc(Cl)c2C)cc1", "values": [{"measurement": "survivor count", "setting": "[4]", "value": "10 of 10"}]}
{"smiles": "O=C(COc1ccc(Cl)cc1)Nc1cccc(C(F)(F)F)c1", "values": [{"measurement": "T/C", "setting": "dose: 2.5 mg/kg/injection, schedule: Q01DX009 (ip), vehicle: Klucel (hydroxypropylcellulose) (HPC)", "value": "136 % of control"}, {"measurement": "survivor count", "setting": "dose: 18.8 mg/kg/injection, schedule: Q01DX009 (ip), vehicle: saline with Tween-80", "value": "10 of 10"}, {"measurement": "survivor count", "setting": "[4]", "value": "10 of 10"}, {"measurement": "survivor count", "setting": "dose: 150.0 mg/kg/injection, schedule: Q01DX009 (ip), vehicle: saline with Tween-80", "value": "9 of 10"}]}
{"smiles": "O=C1c2ccccc2C(=O)c2c(NCCN3CCCCC3)ccc(NCCN3CCCCC3)c21", "values": [{"measurement": "T/C", "setting": "dose: 32.0 mg/kg/injection, schedule: Q01DX009 (ip), vehicle: acid diluted with saline", "value": "131 % of control"}, {"measurement": "survivor count", "setting": "dose: 64.0 mg/kg/injection, schedule: Q01DX009 (ip), vehicle: acid diluted with saline", "value": "10 of 10"}, {"measurement": "survivor count", "setting": "dose: 128.0 mg/kg/injection, schedule: Q01DX009 (ip), vehicle: acid diluted with saline", "value": "6 of 10"}, {"measurement": "survivor count", "setting": "dose: 256.0 mg/kg/injection, schedule: Q01DX009 (ip), vehicle: acid diluted with saline", "value": "0 of 10"}]}
{"smiles": "CCC1(O)CC(OC2CC(N(C)C)C(OC3CC4OC5CC(=O)C(C)OC5OC4C(C)O3)C(C)O2)c2c(cc3c(c2O)C(=O)c2c(O)ccc(O)c2C3=O)C1C(=O)OC", "note": "(centres undefined)", "values": [{"measurement": "survivor count", "setting": "[2]", "value": "10 of 10"}, {"measurement": "survivor count", "setting": "[3]", "value": "4 of 10"}, {"measurement": "survivor count", "setting": "dose: 6.0 mg/kg/injection, schedule: Q04DX003 (ip), vehicle: saline", "value": "8 of 10"}]}
